# Measurements: the supplement of paper PMC3334620
# The full ranking holds about 33,000 sequences; the median of “E-score (-0.5 to 0.5)” is about -0.016, and the highest 2% start at about 0.3. Some of the results follow.
# Target: T1, Yer184c (UniProt P39961)
# T1 sequence: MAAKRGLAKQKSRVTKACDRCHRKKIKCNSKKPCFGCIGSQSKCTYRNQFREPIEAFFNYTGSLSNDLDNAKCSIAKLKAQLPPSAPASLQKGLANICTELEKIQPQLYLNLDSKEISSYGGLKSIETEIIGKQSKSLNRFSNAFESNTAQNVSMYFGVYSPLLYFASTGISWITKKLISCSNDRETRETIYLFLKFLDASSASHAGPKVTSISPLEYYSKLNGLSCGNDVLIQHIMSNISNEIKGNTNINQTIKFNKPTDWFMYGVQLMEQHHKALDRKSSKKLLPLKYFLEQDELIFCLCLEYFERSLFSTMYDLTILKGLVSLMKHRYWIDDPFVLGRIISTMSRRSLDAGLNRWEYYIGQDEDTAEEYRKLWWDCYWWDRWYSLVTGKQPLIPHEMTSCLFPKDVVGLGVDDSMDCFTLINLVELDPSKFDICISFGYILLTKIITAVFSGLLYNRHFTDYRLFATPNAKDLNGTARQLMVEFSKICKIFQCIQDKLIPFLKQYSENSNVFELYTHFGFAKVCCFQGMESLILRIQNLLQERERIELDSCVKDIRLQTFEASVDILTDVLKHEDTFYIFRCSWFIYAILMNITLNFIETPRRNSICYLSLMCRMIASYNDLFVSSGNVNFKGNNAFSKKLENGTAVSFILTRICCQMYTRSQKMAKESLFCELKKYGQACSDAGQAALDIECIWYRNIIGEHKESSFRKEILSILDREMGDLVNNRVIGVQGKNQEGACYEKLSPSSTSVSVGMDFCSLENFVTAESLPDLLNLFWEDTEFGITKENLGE
# Experiment: PBM E-score (8-mer binding enrichment) (E-score (-0.5 to 0.5)); higher = stronger / more preferred TF binding
# Settings: protein concentration: 100 nM; construct: GST-full length
# Procedure, shortened: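 GST-tagged yeast TFs (full-length or DNA-binding domain) were made by PURExpress in vitro transcription/translation and applied at about 100-200 nM to universal all-10-mer Agilent arrays. The arrays were made double-stranded by primer extension, on fresh or once-stripped slides. Bound protein was detected with fluorescent anti-GST, and scans were normalised with masliner. Each ungapped eight-base word, pooled with its reverse complement, received an E-score (modified Wilcoxon-Mann-Whitney statistic) from the Universal PBM Analysis Suite.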
row,Sequence,PBM E-score
1,ATGCGGCA,0.0181
2,TATGATAA,0.228
3,AAACGCAT,-0.15
4,GTCTAATA,-0.129
5,TCGGGAAA,0.309
6,ATAATCAA,0.197
7,ATTTGACA,0.107
8,CCATCCGA,0.0749
9,AGAGTGCC,-0.159
10,GCAATTTA,0.207
11,CGGCGGAG,0.202
12,CTAAGGGC,-0.296
13,GTTTCCAA,-0.0255
14,AGTCCCTA,-0.257
15,GGGTCAAA,0.0026
16,ATGCGCAG,-0.195
17,ATAGGATA,0.00278
18,ACGTATAG,-0.0971
19,AACTTACC,0.0922
20,GACTAAAA,0.203
21,CTAACAAC,0.0682
22,ACCTCAAT,-0.0772

row,Sequence,PBM E-score
1,TAATTGGA,0.143
2,AAGTTTCG,0.0435
3,AAGTGATA,-0.118
4,AGTACTTG,0.0145
5,CGAATATA,0.167
6,CGATCAGA,-0.179
7,AACATGTT,0.19
8,CACGGAGA,0.199
9,CGGGCACA,-0.095
10,GCCGATAA,0.282
11,CTCCAGGA,-0.159
12,CGACCGCC,-0.169
13,TAAAATCA,0.259
14,CGGGGCGC,-0.0867
15,ACGGCGGG,0.0397
16,GGAGCAAA,-0.0609
17,CAAGCCTC,-0.237
18,TTCAGAAA,0.0478
19,AACAGGCC,-0.023
20,ATGTAATG,0.191
21,CCAAACCC,-0.218
22,GGGTTCTA,-0.175

row,Sequence,PBM E-score
1,AAAGCTTG,-0.0729
2,AAAAGCCC,-0.0797
3,AGTGAGGA,-0.153
4,CCTTACCC,-0.122
5,CTTCTATA,0.12
6,AATACCCT,-0.0621
7,CATACGAG,-0.0244
8,GCGCAGGA,-0.237
9,ACGGATCA,0.248
10,CCGGTATA,0.208
11,AAATTCTA,0.0844
12,AGCGGCGA,0.163
13,GCTTTGCC,-0.146
14,AGTCAATA,0.0893
15,GCTTCCAA,-0.00687
16,AAGGTTGT,-0.0663
17,CCCGCACA,-0.0186
18,TTAACTAA,0.219
19,AACCTGGG,-0.356
20,TCCCCACA,-0.342
21,GCAAAGTA,0.0568
22,AAGACGGT,-0.2

row,Sequence,PBM E-score
1,CCGGTGGC,0.119
2,GCCTTCTA,-0.111
3,AGCCTCAA,-0.08
4,ACCTTATC,-0.129
5,AACTTCGT,0.073
6,CCCACCCG,0.0102
7,GTTTTTGA,0.196
8,ACCCAATG,-0.177
9,ACGGCATC,0.0862
10,ATGTACTC,-0.00452
11,GTTGTGCA,-0.129
12,TCAGCTCA,0.0297
13,CACTGACA,0.0289
14,CATCAATG,-0.0256
15,CTGTTCAC,-0.145
16,CTCCGGTA,0.218
17,AAAGTCTG,-0.164
18,ACAGGCAG,-0.171
19,ACACCTGA,-0.144
20,GTTAGCGA,0.00811
